According to PMC10296995 (Cells, 2023):
Some peptides are written in HELM: one residue between dots, names in brackets for other building blocks, links after the first $.

Test: peptide made by a vendor (Fmoc solid-phase peptide synthesis)
Settings: whole synthesis

Substance: PEPTIDE1{[ac].S.D.K.P}$$$$V2.0
- purity (crude or final not stated): >98%
